Test results: publication PMC7950264
No constants are given. Whether binding was seen depends on the method and setting. In cells and extracts the contact can be indirect. These calls come from enrichment with a bait or labelling near it, and not all partners need be listed. Each block holds one molecule with its values, some of them ahead of it.

By UniProt entry, the sequences of proteins in these tests, tags left out. Where a name states a change or a piece, a line headed by the entry shows the natural chain unless it says otherwise. Chains listed by the source or under a name are the forms on record and can include a tag or linker.
pyruvate kinase M1 (P14618-2, form named): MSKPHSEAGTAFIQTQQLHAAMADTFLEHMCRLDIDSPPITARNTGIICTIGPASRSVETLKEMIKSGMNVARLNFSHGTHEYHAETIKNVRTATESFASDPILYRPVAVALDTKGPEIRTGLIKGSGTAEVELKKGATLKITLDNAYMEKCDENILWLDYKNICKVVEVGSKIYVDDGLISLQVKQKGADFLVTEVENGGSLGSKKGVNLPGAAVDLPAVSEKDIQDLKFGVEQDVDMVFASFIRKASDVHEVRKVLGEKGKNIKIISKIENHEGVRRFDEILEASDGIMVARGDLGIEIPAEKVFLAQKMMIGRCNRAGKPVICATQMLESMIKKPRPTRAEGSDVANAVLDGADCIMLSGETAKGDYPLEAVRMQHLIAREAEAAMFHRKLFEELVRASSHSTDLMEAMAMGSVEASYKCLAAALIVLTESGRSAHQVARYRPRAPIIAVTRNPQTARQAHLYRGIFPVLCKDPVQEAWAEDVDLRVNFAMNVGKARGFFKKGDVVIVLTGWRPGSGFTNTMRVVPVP

Biological target: T1, TRIM29 (human (endogenous in DLD-1 and SW480)) (UniProt Q14134)
T1 sequence: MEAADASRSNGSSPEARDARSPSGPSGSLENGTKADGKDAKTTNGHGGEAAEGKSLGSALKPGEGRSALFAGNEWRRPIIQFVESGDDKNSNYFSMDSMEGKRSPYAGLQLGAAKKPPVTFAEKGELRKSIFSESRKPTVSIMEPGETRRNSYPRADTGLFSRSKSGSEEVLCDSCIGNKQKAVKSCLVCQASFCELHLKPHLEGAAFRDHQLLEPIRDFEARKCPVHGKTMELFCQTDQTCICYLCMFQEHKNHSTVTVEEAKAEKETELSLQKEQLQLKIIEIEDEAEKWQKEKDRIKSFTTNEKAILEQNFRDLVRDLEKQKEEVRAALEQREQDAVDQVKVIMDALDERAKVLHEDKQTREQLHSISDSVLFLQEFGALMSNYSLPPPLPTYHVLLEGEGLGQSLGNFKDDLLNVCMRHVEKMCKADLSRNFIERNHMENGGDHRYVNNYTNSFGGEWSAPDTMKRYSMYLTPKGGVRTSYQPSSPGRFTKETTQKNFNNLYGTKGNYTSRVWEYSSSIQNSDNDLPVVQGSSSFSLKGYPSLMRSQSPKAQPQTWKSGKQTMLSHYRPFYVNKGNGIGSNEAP
Experiment: affinity purification with mass spectrometry; 2 mg DLD-1 lysate with 1 ug anti-TRIM29 antibody or rabbit IgG and protein A/G beads, 4 C overnight; SDS-PAGE, silver staining, differential bands between 35 and 70 kDa analysed by LC-MS/MS

binding: binds
Molecule: annexin A2 isoform 2 (from UniProt P07355-1 1-339)

binding: binds
Molecule: pyruvate kinase M1 (from UniProt P14618-2 1-531) (enzyme)

binding: binds
B1: 5'-nucleotidase isoform 2 preproprotein (enzyme, UniProt P21589-2 27-499)
chain: WELTILHTNDVHSRLEQTSEDSSKCVNASRCMGGVARLFTKVQQIRRAEPNVLLLDAGDQYQGTIWFTVYKGAEVAHFMNALRYDAMALGNHEFDNGVEGLIEPLLKEAKFPILSANIKAKGPLASQISGLYLPYKVLPVGDEVVGIVGYTSKETPFLSNPGTNLVFEDEITALQPEVDKLKTLNVNKIIALGHSGFEMDKLIAQKVRGVDVVVGGHSNTFLYTGNPPSKEVPAGKYPFIVTSDDGRKVPVVQAYAFGKYLGYLKIEFDERGNVISSHGNPILLNSSIPEDPSIKADINKWRIKLDNYSTQELGKTIVYLDGSSQSCRFRECNMGNLICDAMINNNLRHTDEMFWNHVSMCILNGGGIRSPIDERNNGIHVVYDLSRKPGDRVVKLDVLCTKCRVPSYDPLKMDEVYKVILPNFLANGGDGFQMIKDELLRHDSGDQDINVVSTYISKMKVIYPAVEGRIKFS

binding: binds
B2: Serpin B3 (protein, UniProt P29508 1-390)
chain: MNSLSEANTKFMFDLFQQFRKSKENNIFYSPISITSALGMVLLGAKDNTAQQIKKVLHFDQVTENTTGKAATYHVDRSGNVHHQFQKLLTEFNKSTDAYELKIANKLFGEKTYLFLQEYLDAIKKFYQTSVESVDFANAPEESRKKINSWVESQTNEKIKNLIPEGNIGSNTTLVLVNAIYFKGQWEKKFNKEDTKEEKFWPNKNTYKSIQMMRQYTSFHFASLEDVQAKVLEIPYKGKDLSMIVLLPNEIDGLQKLEEKLTAEKLMEWTSLQNMRETRVDLHLPRFKVEESYDLKDTLRTMGMVDIFNGDADLSGMTGSRGLVLSGVLHKAFVEVTEEGAEAAAATAVVGFGSSPTSTNEEFHCNHPFLFFIRQNKTNSILFYGRFSSP
